The text below walks through data of doi:10.1101/2024.08.18.608516.

By UniProt entry, the sequences of proteins in these tests, tags left out. Where a name states a change or a piece, a line headed by the entry shows the natural chain unless it says otherwise.
UniProt Q8IXJ9, whole entry, stated change not applied: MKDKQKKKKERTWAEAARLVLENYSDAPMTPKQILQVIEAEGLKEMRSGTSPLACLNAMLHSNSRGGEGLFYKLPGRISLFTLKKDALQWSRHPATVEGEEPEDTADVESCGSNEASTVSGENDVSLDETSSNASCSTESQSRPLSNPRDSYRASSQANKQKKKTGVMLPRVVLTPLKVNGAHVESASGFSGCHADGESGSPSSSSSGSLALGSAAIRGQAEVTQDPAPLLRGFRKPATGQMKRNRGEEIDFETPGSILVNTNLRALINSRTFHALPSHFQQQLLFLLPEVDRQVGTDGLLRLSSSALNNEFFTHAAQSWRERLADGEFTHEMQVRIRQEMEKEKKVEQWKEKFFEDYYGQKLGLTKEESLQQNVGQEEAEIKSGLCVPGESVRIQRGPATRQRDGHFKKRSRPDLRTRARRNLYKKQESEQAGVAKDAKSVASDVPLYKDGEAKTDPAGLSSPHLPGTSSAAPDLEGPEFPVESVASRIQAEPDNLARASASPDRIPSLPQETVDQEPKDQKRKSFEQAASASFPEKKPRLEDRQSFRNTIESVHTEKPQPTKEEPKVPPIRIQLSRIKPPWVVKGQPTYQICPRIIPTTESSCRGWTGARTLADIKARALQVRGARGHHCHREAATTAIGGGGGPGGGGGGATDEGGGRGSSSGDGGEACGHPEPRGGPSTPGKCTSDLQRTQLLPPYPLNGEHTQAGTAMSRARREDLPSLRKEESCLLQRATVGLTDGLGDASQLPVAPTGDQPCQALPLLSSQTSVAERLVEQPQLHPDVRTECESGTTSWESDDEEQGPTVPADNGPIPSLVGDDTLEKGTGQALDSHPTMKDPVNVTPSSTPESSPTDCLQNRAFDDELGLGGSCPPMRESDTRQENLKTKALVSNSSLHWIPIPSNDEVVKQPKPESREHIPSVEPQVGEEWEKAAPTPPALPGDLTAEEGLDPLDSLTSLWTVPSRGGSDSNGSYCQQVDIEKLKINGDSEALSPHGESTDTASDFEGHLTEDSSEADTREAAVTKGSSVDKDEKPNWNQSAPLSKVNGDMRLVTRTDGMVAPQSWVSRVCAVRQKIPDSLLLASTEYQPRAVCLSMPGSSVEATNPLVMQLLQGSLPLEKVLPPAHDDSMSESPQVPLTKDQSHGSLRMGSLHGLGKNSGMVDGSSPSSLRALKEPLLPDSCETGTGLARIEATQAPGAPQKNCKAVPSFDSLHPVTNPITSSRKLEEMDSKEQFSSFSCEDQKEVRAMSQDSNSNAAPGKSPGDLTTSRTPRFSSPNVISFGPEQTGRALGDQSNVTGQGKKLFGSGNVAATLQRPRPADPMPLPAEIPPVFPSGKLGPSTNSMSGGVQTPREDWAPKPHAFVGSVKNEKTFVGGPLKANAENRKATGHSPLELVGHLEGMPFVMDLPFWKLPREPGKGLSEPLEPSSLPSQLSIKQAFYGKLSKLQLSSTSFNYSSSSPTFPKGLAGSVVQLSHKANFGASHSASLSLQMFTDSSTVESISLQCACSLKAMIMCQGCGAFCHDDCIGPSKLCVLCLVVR

Holding throughout (test): co-IP
Test [1] deals with 3xFLAG-ASXL1-WT (wild-type ASXL1) (UniProt Q8IXJ9).
Test [2] addresses 3xFLAG-ASXL1-MT (C-terminally truncated mutant ASXL1).
The target in test [3] is 3xFLAG-ASXL1-CT (C-terminal side of ASXL1).
The target in test [4] is 3xFLAG-ASXL1-MT (C-terminally truncated mutant ASXL1). This is another data set of the same source.

Read-outs that look alike come from different tables or passages of the source. No constants are given. Whether binding was seen depends on the method and setting. Binding seen in cells or lysates may run through a third protein. Binding calls can cover weak binding; strength is not graded here. For some assays here: Tags and fused reporters may be left off the sequences shown.

In the case of TAK1-K63W (from UniProt Q62073), in test [1], the binding entry was “binds”.

B1: HA-tagged TAB2 (protein, UniProt Q9NYJ8 1-693)
chain: MAQGSHQIDFQVLHDLRQKFPEVPEVVVSRCMLQNNNNLDACCAVLSQESTRYLYGEGDLNFSDDSGISGLRNHMTSLNLDLQSQNIYHHGREGSRMNGSRTLTHSISDGQLQGGQSNSELFQQEPQTAPAQVPQGFNVFGMSSSSGASNSAPHLGFHLGSKGTSSLSQQTPRFNPIMVTLAPNIQTGRNTPTSLHIHGVPPPVLNSPQGNSIYIRPYITTPGGTTRQTQQHSGWVSQFNPMNPQQVYQPSQPGPWTTCPASNPLSHTSSQQPNQQGHQTSHVYMPISSPTTSQPPTIHSSGSSQSSAHSQYNIQNISTGPRKNQIEIKLEPPQRNNSSKLRSSGPRTSSTSSSVNSQTLNRNQPTVYIAASPPNTDELMSRSQPKVYISANAATGDEQVMRNQPTLFISTNSGASAASRNMSGQVSMGPAFIHHHPPKSRAIGNNSATSPRVVVTQPNTKYTFKITVSPNKPPAVSPGVVSPTFELTNLLNHPDHYVETENIQHLTDPTLAHVDRISETRKLSMGSDDAAYTQALLVHQKARMERLQRELEIQKKKLDKLKSEVNEMENNLTRRRLKRSNSISQIPSLEEMQQLRSCNRQLQIDIDCLTKEIDLFQARGPHFNPSAIHNFYDNIGFVGPVPPKPKDQRSIIKTPKTQDTEDDEGAQWNCTACTFLNHPALIRCEQCEMPRHF
As for B1, in test [2], the binding entry is listed as “no binding”.

B2: HA-Tak1 (protein, UniProt Q62073 1-579)
chain: MSTASAASSSSSSSASEMIEAPSQVLNFEEIDYKEIEVEEVVGRGAFGVVCKAKWRAKDVAIKQIESESERKAFIVELRQLSRVNHPNIVKLYGACLNPVCLVMEYAEGGSLYNVLHGAEPLPYYTAAHAMSWCLQCSQGVAYLHSMQPKALIHRDLKPPNLLLVAGGTVLKICDFGTACDIQTHMTNNKGSAAWMAPEVFEGSNYSEKCDVFSWGIILWEVITRRKPFDEIGGPAFRIMWAVHNGTRPPLIKNLPKPIESLMTRCWSKDPSQRPSMEEIVKIMTHLMRYFPGADEPLQYPCQYSDEGQSNSATSTGSFMDIASTNTSNKSDTNMEQVPATNDTIKRLESKLLKNQAKQQSESGRLSLGASRGSSVESLPPTSEGKRMSADMSEIEARIVATAGNGQPRRRSIQDLTVTGTEPGQVSSRSSSPSVRMITTSGPTSEKPARSHPWTPDDSTDTNGSDNSIPMAYLTLDHQLQPLAPCPNSKESMAVFEQHCKMAQEYMKVQTEIALLLQRKQELVAELDQDEKDQQNTSRLVQEHKKLLDENKSLSTYYQQCKKQLEVIRSQQQKRQGTS
For B2, the binding result in test [2], in test [3] and in test [4] was “binds” throughout.
